Test results reported in article PMC5964324.
Read-outs that look alike come from different tables or passages of the source. No constants are given. Whether binding was seen depends on the method and setting. Binding seen in cells or lysates may run through a third protein. A yes stands for co-enrichment or nearness to the bait. Other partners may have been found. For some of these results: Where a sequence is shown, tags or fusion partners need not be part of it.

Amino acid sequences for entries named in this document (tags omitted).
UniProt P54578: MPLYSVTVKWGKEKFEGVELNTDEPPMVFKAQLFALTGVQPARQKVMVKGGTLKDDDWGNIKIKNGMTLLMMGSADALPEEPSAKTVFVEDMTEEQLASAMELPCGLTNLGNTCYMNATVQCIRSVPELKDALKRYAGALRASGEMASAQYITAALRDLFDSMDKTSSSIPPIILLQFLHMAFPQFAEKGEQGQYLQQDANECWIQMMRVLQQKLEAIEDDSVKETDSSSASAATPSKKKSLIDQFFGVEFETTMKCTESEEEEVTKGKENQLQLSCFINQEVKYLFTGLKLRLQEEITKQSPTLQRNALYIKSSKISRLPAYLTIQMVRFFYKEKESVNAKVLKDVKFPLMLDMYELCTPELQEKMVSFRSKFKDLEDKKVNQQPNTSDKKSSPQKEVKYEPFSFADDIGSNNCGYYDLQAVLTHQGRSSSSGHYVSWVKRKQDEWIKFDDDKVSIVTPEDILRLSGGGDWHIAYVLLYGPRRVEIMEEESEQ
UniProt Q96RN5: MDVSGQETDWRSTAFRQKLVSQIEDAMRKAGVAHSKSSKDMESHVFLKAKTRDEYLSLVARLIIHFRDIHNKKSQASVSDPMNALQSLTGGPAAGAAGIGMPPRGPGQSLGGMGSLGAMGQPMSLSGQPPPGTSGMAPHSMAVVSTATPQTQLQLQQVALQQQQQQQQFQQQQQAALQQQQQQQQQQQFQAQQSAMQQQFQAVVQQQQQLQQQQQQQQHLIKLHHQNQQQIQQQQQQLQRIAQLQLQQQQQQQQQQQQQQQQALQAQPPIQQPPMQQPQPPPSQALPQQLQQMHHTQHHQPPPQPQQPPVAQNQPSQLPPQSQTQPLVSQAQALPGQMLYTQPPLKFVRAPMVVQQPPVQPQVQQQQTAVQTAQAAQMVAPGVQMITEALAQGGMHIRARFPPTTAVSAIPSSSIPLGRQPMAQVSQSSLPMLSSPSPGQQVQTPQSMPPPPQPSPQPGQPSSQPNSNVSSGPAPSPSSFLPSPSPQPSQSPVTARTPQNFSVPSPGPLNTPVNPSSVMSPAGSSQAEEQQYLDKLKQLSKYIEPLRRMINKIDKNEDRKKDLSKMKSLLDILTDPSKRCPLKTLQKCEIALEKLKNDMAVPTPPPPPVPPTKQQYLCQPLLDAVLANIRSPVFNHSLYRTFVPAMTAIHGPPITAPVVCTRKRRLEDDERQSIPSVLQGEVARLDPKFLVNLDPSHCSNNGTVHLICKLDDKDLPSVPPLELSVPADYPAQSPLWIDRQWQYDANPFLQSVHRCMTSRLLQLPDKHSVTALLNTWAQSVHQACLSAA
UniProt Q13263: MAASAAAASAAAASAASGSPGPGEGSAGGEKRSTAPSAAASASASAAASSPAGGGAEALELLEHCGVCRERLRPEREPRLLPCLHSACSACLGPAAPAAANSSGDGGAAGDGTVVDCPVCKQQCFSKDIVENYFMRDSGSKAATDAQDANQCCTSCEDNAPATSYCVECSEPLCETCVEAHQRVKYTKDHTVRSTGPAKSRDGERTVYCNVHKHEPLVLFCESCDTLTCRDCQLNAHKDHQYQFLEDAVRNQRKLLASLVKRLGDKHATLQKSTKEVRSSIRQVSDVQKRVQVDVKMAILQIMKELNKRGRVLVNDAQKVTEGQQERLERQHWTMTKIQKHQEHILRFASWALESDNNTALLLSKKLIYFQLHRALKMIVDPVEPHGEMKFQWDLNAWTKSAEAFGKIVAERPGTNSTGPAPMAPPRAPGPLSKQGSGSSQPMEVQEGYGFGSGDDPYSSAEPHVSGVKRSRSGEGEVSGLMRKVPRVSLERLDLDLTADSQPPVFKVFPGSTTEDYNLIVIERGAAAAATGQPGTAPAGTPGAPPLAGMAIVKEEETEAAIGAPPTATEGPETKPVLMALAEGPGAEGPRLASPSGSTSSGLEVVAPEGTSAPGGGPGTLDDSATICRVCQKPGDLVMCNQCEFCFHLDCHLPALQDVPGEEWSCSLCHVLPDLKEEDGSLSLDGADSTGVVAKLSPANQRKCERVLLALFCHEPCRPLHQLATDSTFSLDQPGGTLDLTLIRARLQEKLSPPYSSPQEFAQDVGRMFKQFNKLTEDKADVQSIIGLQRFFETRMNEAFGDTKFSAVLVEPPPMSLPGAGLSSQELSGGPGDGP
UniProt Q13200: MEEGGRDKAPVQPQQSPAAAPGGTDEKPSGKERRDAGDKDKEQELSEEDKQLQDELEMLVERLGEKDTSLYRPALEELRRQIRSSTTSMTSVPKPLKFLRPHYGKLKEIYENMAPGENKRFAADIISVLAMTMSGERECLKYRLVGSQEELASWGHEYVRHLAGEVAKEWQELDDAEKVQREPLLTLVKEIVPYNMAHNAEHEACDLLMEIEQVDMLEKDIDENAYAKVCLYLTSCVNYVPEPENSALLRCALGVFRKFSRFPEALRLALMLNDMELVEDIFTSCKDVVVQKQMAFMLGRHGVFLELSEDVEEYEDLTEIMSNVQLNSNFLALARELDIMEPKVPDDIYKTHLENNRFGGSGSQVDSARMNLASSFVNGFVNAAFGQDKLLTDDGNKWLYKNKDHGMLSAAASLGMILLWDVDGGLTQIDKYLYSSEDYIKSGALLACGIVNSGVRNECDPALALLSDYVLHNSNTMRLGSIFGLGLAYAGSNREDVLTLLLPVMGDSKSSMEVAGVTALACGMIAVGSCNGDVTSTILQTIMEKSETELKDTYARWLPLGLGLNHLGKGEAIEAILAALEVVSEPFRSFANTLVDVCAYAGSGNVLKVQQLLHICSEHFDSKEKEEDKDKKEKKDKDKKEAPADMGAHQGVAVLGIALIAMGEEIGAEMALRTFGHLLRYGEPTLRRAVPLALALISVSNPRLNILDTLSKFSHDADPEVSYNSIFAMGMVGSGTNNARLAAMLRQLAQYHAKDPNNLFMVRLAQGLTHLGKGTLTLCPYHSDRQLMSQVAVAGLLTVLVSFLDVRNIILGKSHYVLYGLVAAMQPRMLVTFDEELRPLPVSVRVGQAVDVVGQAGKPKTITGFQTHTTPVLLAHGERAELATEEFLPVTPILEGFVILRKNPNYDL

T1: Flag-TRIM11 (UniProt Q96F44)
T1 sequence: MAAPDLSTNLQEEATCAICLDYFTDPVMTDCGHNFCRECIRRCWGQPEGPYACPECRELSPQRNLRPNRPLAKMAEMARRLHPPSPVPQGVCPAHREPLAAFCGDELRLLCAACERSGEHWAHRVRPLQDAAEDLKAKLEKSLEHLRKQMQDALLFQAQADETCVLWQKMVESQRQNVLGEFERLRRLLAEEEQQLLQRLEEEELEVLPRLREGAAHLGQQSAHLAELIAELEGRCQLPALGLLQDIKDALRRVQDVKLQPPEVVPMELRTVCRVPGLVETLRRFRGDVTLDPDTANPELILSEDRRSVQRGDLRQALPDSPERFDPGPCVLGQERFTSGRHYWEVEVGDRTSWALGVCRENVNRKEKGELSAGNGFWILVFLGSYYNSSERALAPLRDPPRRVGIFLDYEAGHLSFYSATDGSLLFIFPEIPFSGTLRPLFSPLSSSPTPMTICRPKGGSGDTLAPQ


Key:
Assay in all cases: affinity purification with mass spectrometry; lysates of HCT116 cells stably expressing control vector, Flag-TRIM11 or HA-Flag-USP14; anti-Flag M2 beads, 4 °C, 4 h; 50 mM HEPES pH 7.4, 150 mM NaCl, 0.5% NP-40, 0.5% Triton X-100; eluted with 3xFLAG peptide
Flag-TRIM11 = molecular target: T1, Flag-TRIM11
HA-Flag-USP14 (human) [1] = molecular target: HA-Flag-USP14 (human) (UniProt P54578)
HA-Flag-USP14 (human) [2] = molecular target: HA-Flag-USP14 (human) (UniProt P54578); remark: listed apart in the source

binding (Flag-TRIM11)	Molecule	also measured
binds	MED15 (from UniProt Q96RN5 1-788)	–
–	TRIM28 (from UniProt Q13263 1-835)	binding (HA-Flag-USP14 (human) [1]): binds
binds	endogenous PSMD2 (from UniProt Q13200 1-908)	–
–	endogenous TRIM11 (protein, UniProt Q96F44 1-468) MAAPDLSTNLQEEATCAICLDYFTDPVMTDCGHNFCRECIRRCWGQPEGPYACPECRELSPQRNLRPNRPLAKMAEMARRLHPPSPVPQGVCPAHREPLAAFCGDELRLLCAACERSGEHWAHRVRPLQDAAEDLKAKLEKSLEHLRKQMQDALLFQAQADETCVLWQKMVESQRQNVLGEFERLRRLLAEEEQQLLQRLEEEELEVLPRLREGAAHLGQQSAHLAELIAELEGRCQLPALGLLQDIKDALRRVQDVKLQPPEVVPMELRTVCRVPGLVETLRRFRGDVTLDPDTANPELILSEDRRSVQRGDLRQALPDSPERFDPGPCVLGQERFTSGRHYWEVEVGDRTSWALGVCRENVNRKEKGELSAGNGFWILVFLGSYYNSSERALAPLRDPPRRVGIFLDYEAGHLSFYSATDGSLLFIFPEIPFSGTLRPLFSPLSSSPTPMTICRPKGGSGDTLAPQ	binding (HA-Flag-USP14 (human) [2]): binds
